# Experimental data published in the supplement of paper PMC3334620.
# In all, about 33,000 sequences were measured (“E-score (-0.5 to 0.5)”: median about -0.0034, highest 2% from about 0.25 on). This is one part of the list.
# Target: T1, Yap3 (UniProt P38749)
# T1 sequence: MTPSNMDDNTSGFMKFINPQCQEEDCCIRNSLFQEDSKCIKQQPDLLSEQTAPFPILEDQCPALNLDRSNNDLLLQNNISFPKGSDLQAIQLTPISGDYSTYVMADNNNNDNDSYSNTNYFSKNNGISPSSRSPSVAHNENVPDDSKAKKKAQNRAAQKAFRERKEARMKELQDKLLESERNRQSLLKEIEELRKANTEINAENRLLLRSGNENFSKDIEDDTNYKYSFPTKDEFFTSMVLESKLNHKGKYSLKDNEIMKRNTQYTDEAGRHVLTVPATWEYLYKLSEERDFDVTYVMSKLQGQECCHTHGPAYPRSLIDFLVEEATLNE
# Assay: PBM E-score (8-mer binding enrichment) (E-score (-0.5 to 0.5)); higher = stronger / more preferred TF binding
# Conditions: protein concentration: 100 nM; construct: GST-full length
# In short: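 For each ungapped eight-base word taken together with its reverse complement, the Universal PBM Analysis Suite assigned an E-score. Binding data came from GST-tagged yeast transcription factors, applied at about 100-200 nM, on universal all-10-mer Agilent arrays made double-stranded by primer extension. Fluorescent anti-GST marked bound protein, and scans were normalised with masliner.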
row,Sequence,PBM E-score
1,CTGAGAAC,0.122
2,TCATTTCA,0.122
3,CAAATGTC,-0.0527
4,ATGCACCC,-0.00077
5,AGCCCACA,-0.117
6,ACATGGAC,-0.0827
7,GGGGTATA,-0.0253
8,CGGCATTC,0.0554
9,GGACAAAA,0.172
10,CACTCGAC,-0.0984
11,CCAAAACC,0.00906
12,ACTGTCTG,-0.134
13,AAATAGTA,0.209
14,AGCCAGCC,-0.184
15,GTCAACAA,0.0405
16,CTGTGTAC,0.0905
17,ACCAACAT,0.0802
18,AAGCTAAT,0.0795
19,CGTGGGGC,-0.333
20,AGTTATCG,0.13
21,GCCGCCTA,-0.129
22,GGTCACCA,-0.33
23,CCGTACTC,-0.142
24,CTATCGAG,-0.0268
25,CAGATCCA,0.00919
26,CAGGTGAA,0.0248

row,Sequence,PBM E-score
1,CCAGCGAA,-0.104
2,TGACCGAA,0.0396
3,CATAAGAC,0.203
4,ATGGGTAG,-0.0623
5,AAACCAAA,0.0991
6,ACTGTAAA,0.257
7,GCAGCACA,0.0133
8,GGCAGTAA,0.0144
9,GAACTTGC,-0.121
10,CTTCGATA,0.047
11,GAGGATTA,0.133
12,GCCGACAC,-0.135
13,ACCCGGAG,-0.0785
14,CCCGAAAA,0.0902
15,CGGGGGTA,-0.0997
16,AGTGTGCC,0.0509
17,CATGTACC,-0.14
18,GCCTGCCA,-0.092
19,AATGCTGT,-0.00234
20,CACGCTTA,0.125
21,AGGCTAAT,0.119
22,CATCTTGA,-0.0437
23,ACTGACCG,-0.0919
24,AACGCATT,0.0955
25,ATCTTGAG,0.0293
26,CAGGGCGA,-0.118

row,Sequence,PBM E-score
1,GGGACGAA,-0.259
2,CGTGACAA,-0.06
3,CTTCCCGA,0.0207
4,GGAGATAC,-0.18
5,CGTCGCAG,-0.0218
6,AGCCCAAC,0.0103
7,AGTCATCA,0.03
8,ATCGACTC,-0.161
9,CCCGGTGA,-0.265
10,CAATGATG,0.127
11,GGATGGTA,0.159
12,GGACATTA,0.18
13,ACGTAACC,0.13
14,GGCTACCA,-0.225
15,AGCCACCT,-0.187
16,ATAGGACG,0.0434
17,ATGATTAG,0.124
18,TGATAAAA,0.168
19,GATTTCAA,0.0767
20,GGTTCTGA,-0.0196
21,GCATGCGA,0.161
22,GCCGTGAC,-0.017
23,CGTTACGA,0.051
24,CCCCTCCC,-0.172
25,ATGGCCCA,-0.1
26,AATCAAGA,0.167

row,Sequence,PBM E-score
1,TAAAAGTA,0.195
2,AATGTCGT,0.0725
3,CGAACGTA,0.0095
4,GGCCGCAA,-0.0704
5,CCATGTCC,-0.0944
6,CTGGGTCC,-0.332
7,AGAGACAC,-0.164
8,ACGTAAAT,0.174
9,AGAAAACT,0.163
10,GCGAACCC,-0.162
11,ACGGACCC,-0.204
12,ACTTCCTA,0.0716
13,CGTTAGAA,0.0499
14,GCAGCACC,-0.145
15,ACACTAAA,0.261
16,AGCGCGTC,-0.0689
17,AATGACTC,-0.114
18,CAGTGGGC,-0.232
19,CAATGGCC,-0.262
20,GACATCAC,-0.0593
21,CCCCTGCA,-0.366
22,GTAACTAA,0.163
23,CGGGTGCA,-0.126
24,CTCTGTCC,-0.0934
25,CATCACGA,-0.112
26,ATACATTC,0.0366

# A second format for part of the listing above.
row	Sequence	PBM E-score
20	GACATCAC	-0.0593
21	CCCCTGCA	-0.366

# Continued:

row,Sequence,PBM E-score
1,CTAGGCAA,-0.153
2,ACAAGAGA,0.113
3,GACTTGCC,-0.278
4,AATGACAG,0.142
5,AGCCCGGA,-0.233
6,CATATTGA,0.0743
7,CGGTGCTA,-0.00548
8,CATCTAAC,-0.11
9,CAAACGCA,-0.033
10,CATTGGAG,-0.00265
11,GGGACTTA,-0.0342
12,CTACGAAG,-0.216
13,CAACCCTG,-0.0135
14,ACCTACGT,0.0431
15,ATCGCACA,0.0433
16,GCGCATGA,0.004
17,CATGCACA,0.14
18,AACGTGGG,-0.0983
19,GGATTGTA,0.0712
20,ACGGCGCC,-0.173
21,CCTCTCGA,-0.0546
22,ATGCTCTG,-0.135
23,AGCATCCG,-0.0782
24,CAATGTTC,-0.0564
25,AACCTTAA,0.159
26,GGGTGCTA,-0.0464

row,Sequence,PBM E-score
1,GGGGCTAA,-0.103
2,ACCGAAAA,0.178
3,ATATAGGC,0.12
4,CAACAAGC,0.0604
5,ACAGCGAG,-0.137
6,CCACGTGA,0.0417
7,TGATTTAA,0.242
8,GCAATTGC,0.0456
9,AAAGTCTC,-0.219
10,AGTCATAT,0.193
11,ACCGATCG,0.00392
12,AAGCTTAG,0.164
13,CGACAGGA,0.0296
14,ATTTGGAG,-0.135
15,ACCCTATC,-0.0122
16,TCTGAGCA,-0.00117
17,GAGACGTA,0.0952
18,CGTACTCC,-0.0483
19,CCTATTTC,0.0877
20,ACATTAAA,0.229
21,CCTGTATA,-0.0196
22,AGGGATTG,-0.0391
23,GCGCGGTA,0.197
24,TACCTCCA,-0.0761
25,AGTGCTAA,-0.00432
26,ACACTACC,-0.221

row,Sequence,PBM E-score
1,GTCAGCCA,-0.0924
2,CGAGCCCC,-0.222
3,GAGGCTGC,-0.143
4,CCGGGTAA,0.0179
5,GACTACCA,-0.091
6,CGGTAGCC,0.0787
7,CTGACTAA,0.392
8,GGGTATAA,0.136
9,CGATACCA,0.0687
10,CCAATAGA,-0.0688
11,ACATTCTA,-0.00561
12,AACCGTGC,-0.0412
13,CAGTTCGA,0.0686
14,CACTCTGA,-0.131
15,AGTGGGAA,0.125
16,ATTGTTGG,0.148
17,CTGTATCA,-0.074
18,GAAGAATC,-0.13
19,CATCTGGA,-0.198
20,AACGTGCA,0.0603
21,GATAGCCC,-0.113
22,GATTTTTA,-0.0325
23,CCTTCGAG,-0.253
24,CCGGCGTA,-0.22
25,GTTCATCA,0.05
26,CTGATATA,-0.0342

# 5 records picked at random from those above, as already listed:
row,Sequence,PBM E-score
13,CAGTTCGA,0.0686
5,GACTACCA,-0.091
10,CCAATAGA,-0.0688
12,AACCGTGC,-0.0412
6,CGGTAGCC,0.0787

# Carrying on:

row,Sequence,PBM E-score
1,GCAGATAC,0.05
2,AGCACTAG,0.0392
3,CTGTAGTA,0.281
4,AGCTGACT,-0.00776
5,CTGCGAAA,-0.22
6,CGATCACC,-0.0553
7,ACGACTCT,-0.0196
8,GACCGATA,0.0358
9,ATGGAGTC,0.0588
10,GAACTGCC,-0.133
11,CCCGATCG,-0.0307
12,ATCTGCGA,-0.0489
13,CTTGGATC,0.0677
14,ACGCAACT,0.11
15,CAAGTCAG,-0.0713
16,AACTTAAG,0.0692
17,GAAGATAA,0.162
18,AGGGAAAG,-0.147
19,CGGTGGAA,-0.192
20,CGGAACTA,0.0432
21,ATTGCTAA,0.222
22,CACATTAG,-0.0914
23,GAATATCC,0.0628
24,AGACGACT,-0.122
25,GGATATCC,0.038
26,ATTCCCTG,0.15

row,Sequence,PBM E-score
1,GTCGAGCA,-0.205
2,CGCCTGAC,-0.00752
3,GATCCGCC,-0.0253
4,ACTGTGGA,0.0177
5,AGGGAGGA,-0.139
6,AAGCGCAA,0.0713
7,AGACCAGA,0.0393
8,CCGCCTAG,-0.0538
9,AATGGTCC,0.113
10,AGCAGTAG,-0.271
11,GTAGCTAC,0.0989
12,CACGCTCA,0.0847
13,AACGTTGG,0.0526
14,AGGAGACT,-0.148
15,GCGGATAC,0.00093
16,ATGGCGGA,-0.204
17,ATTGGTCC,0.0822
18,CACCAAGA,0.0113
19,CGTGCGCC,0.0373
20,ATGTGCGA,-0.0659
21,GCCCAAAA,-0.154
22,ATTTTTTG,0.226
23,CTAAAGGA,-0.0468
24,GGGTAGGA,-0.0274
25,CCGAACGG,-0.13
26,CTCCACAA,0.0271

row,Sequence,PBM E-score
1,ATAAGTCG,-0.0267
2,AACCCTCC,-0.259
3,AGTGGCAA,0.00799
4,TCCACCAA,0.0413
5,AATTTCTC,0.155
6,CTGAAAGC,0.0692
7,ATGGACTG,-0.126
8,CAGCTCGC,0.0205
9,AGTTGAAT,0.232
10,AAAGAGCT,-0.0109
11,GCAAGCGA,0.0299
12,CGACAACC,-0.112
13,AAGGGATA,0.155
14,AACCAAGA,0.0398
15,GAGTACTA,0.078
16,AGGACCGC,-0.166
17,GAAATTTC,-0.0257
18,GGGGGTAC,-0.269
19,AGCAAAGA,0.0203
20,AGCTATAG,-0.228
21,CGACTACA,0.0886

# Given with bars between the fields: entries from further up.
row | Sequence | PBM E-score
7 | ATGGACTG | -0.126
8 | CAGCTCGC | 0.0205
9 | AGTTGAAT | 0.232
